Measurements from the supplement of paper PMC10849652.
The other results are listed elsewhere or left out.

Amino acid sequences for entries named in this document (tags omitted). A change or cut given only in a name is not applied to a line headed by its entry.
UniProt O75569: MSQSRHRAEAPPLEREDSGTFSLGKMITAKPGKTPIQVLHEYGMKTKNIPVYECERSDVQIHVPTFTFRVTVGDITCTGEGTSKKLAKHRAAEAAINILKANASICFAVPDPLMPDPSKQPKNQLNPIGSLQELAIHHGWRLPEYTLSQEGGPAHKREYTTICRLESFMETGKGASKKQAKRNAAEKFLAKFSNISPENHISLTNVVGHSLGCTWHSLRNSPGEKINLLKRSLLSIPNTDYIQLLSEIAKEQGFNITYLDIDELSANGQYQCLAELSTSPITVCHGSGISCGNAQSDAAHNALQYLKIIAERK
UniProt O75400: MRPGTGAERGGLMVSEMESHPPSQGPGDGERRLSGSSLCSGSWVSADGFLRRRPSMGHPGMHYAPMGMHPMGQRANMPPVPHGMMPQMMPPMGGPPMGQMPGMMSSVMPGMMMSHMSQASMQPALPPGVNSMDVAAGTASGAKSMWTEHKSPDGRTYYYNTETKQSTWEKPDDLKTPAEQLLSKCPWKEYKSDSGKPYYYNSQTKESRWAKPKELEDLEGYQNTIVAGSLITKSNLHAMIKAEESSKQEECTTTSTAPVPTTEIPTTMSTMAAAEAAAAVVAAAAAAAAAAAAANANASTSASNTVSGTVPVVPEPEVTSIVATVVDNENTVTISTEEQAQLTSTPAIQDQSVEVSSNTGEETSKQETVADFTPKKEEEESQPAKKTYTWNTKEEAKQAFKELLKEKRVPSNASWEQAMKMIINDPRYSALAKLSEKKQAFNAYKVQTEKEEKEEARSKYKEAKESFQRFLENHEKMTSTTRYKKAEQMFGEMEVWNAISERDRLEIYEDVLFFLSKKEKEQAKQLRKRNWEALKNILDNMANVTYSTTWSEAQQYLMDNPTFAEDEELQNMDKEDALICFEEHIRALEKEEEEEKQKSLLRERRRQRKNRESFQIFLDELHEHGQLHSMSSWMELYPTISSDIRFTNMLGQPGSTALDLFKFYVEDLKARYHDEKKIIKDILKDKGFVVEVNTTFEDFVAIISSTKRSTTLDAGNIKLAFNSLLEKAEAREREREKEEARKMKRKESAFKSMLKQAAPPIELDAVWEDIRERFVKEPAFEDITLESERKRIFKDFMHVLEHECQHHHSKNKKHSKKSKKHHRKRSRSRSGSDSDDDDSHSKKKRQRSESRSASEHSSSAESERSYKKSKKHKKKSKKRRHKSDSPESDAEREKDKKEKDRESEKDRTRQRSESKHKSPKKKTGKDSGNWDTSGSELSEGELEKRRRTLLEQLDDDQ
UniProt O14744, whole entry, looked up: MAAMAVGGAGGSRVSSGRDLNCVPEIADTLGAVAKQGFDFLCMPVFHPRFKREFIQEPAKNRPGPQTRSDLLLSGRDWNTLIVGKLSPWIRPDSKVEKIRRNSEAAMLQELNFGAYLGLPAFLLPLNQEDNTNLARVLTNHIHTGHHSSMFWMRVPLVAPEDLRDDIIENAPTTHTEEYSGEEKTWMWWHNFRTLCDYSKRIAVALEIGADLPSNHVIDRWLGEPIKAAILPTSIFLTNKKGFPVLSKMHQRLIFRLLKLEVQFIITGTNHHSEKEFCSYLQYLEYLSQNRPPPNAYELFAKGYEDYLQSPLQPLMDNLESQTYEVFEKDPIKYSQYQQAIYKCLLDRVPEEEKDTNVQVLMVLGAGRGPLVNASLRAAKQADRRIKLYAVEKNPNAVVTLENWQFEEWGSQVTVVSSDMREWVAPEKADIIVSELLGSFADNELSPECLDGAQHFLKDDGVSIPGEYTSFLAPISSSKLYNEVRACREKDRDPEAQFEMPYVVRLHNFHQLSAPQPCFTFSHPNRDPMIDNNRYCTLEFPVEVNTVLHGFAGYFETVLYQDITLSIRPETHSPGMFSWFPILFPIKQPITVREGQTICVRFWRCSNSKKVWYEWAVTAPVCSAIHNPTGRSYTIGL
UniProt Q13523: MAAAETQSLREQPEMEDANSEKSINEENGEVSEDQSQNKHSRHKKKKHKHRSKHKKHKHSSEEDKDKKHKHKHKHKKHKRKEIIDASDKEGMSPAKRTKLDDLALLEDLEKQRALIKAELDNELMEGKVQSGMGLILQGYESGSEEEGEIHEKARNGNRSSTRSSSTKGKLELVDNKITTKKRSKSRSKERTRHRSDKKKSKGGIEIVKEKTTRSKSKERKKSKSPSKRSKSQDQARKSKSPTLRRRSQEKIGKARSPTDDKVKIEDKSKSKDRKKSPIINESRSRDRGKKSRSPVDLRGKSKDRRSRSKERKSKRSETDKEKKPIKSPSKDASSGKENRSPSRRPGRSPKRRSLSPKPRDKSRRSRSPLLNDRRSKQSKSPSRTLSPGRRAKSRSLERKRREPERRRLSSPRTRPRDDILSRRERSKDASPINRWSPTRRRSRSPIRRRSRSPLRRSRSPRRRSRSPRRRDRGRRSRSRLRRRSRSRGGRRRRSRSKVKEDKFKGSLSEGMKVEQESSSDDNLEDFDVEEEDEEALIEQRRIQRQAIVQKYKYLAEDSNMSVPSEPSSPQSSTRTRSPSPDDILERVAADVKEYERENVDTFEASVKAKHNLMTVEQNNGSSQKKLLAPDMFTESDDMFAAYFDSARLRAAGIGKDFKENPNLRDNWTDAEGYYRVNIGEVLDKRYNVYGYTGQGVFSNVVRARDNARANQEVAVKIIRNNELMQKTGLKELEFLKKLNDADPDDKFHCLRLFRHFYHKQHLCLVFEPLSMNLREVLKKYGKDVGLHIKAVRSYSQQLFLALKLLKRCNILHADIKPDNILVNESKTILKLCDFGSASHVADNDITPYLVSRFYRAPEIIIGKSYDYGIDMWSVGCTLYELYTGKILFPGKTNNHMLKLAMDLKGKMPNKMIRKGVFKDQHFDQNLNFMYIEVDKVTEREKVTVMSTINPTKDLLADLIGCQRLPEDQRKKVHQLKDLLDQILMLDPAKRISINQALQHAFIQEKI
UniProt P50897: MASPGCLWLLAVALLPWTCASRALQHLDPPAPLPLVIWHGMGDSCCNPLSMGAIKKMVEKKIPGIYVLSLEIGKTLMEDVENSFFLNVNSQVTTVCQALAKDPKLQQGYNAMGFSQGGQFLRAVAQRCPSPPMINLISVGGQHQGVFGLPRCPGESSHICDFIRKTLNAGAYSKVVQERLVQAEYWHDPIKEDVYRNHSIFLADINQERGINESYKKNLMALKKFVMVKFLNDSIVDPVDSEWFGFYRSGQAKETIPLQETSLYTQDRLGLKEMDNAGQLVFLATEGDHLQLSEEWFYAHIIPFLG
UniProt Q6P2P2: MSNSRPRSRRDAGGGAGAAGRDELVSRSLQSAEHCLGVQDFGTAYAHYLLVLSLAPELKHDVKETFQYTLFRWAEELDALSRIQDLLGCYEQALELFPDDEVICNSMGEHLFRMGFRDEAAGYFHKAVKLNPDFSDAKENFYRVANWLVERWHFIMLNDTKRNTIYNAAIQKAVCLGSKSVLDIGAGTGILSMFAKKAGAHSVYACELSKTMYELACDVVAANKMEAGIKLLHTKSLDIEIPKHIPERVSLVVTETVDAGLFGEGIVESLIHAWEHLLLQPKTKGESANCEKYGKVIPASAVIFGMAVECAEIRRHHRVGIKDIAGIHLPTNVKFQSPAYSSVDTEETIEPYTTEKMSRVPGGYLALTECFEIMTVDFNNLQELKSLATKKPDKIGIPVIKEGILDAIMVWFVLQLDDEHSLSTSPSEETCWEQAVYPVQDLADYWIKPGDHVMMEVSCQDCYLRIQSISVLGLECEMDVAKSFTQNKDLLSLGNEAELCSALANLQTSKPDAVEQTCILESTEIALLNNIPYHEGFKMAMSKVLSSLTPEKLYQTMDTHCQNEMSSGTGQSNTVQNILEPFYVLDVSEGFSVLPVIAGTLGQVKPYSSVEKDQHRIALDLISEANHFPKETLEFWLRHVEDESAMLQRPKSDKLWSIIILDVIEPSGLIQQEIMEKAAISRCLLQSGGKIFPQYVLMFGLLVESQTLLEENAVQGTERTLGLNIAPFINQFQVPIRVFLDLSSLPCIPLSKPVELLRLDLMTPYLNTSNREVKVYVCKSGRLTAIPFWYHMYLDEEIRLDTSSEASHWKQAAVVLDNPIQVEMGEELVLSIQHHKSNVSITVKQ
UniProt Q86WR7: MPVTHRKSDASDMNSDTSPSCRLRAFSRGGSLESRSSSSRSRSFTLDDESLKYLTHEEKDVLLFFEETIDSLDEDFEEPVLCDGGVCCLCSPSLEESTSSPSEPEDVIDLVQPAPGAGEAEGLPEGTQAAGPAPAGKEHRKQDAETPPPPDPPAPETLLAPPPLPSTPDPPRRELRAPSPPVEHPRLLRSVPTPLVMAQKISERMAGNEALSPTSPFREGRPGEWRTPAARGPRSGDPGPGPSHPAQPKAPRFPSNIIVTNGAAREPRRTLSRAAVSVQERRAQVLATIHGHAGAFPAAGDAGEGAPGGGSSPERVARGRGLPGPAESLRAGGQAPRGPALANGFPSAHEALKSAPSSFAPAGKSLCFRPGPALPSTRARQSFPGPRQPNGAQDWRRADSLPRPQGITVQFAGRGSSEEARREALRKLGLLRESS
UniProt Q13162: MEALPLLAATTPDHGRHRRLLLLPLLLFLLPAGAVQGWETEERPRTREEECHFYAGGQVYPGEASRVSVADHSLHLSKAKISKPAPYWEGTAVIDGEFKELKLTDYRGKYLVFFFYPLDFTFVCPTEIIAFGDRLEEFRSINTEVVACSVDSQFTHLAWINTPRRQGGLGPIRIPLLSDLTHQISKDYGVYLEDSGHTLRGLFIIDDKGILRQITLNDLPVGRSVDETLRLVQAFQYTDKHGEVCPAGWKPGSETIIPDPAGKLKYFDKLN
UniProt P07225: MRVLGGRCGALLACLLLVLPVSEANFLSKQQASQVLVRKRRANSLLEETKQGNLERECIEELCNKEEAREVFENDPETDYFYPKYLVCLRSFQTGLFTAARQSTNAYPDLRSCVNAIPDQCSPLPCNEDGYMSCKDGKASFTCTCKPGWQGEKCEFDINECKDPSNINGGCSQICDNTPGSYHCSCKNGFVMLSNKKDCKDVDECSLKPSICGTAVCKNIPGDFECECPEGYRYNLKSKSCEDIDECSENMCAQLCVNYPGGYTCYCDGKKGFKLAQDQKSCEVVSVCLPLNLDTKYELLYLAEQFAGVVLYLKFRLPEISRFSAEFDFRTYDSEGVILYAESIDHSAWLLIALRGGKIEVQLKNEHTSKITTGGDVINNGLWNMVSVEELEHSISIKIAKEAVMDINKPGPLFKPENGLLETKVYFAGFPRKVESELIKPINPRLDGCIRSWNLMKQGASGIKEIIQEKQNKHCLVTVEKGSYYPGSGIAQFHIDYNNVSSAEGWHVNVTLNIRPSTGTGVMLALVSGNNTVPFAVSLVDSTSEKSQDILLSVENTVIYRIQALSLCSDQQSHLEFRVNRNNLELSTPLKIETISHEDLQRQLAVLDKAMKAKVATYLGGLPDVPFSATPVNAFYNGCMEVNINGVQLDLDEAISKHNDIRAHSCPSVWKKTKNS
UniProt Q99873, whole entry, looked up: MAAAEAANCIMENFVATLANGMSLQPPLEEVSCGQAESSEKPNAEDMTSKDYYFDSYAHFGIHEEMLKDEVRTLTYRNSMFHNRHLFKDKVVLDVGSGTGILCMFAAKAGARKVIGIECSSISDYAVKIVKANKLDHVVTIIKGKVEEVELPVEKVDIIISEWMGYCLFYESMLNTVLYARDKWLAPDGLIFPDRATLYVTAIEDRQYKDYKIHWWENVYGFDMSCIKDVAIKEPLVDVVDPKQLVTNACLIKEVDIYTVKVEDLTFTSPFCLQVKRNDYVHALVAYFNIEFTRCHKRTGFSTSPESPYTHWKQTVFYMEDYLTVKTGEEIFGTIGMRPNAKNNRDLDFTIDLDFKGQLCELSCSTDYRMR
UniProt P30041: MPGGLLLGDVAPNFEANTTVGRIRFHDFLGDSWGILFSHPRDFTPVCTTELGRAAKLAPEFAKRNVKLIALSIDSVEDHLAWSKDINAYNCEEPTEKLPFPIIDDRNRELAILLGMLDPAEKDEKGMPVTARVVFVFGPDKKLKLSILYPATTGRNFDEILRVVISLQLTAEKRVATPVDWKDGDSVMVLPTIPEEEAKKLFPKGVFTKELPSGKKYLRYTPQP
UniProt Q9H875: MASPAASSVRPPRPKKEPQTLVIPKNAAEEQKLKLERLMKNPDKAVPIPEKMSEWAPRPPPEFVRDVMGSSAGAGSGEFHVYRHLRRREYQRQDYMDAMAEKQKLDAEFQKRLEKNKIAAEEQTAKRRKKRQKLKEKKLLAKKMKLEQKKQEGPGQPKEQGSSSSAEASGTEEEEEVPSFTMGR
UniProt P62140, whole entry, looked up: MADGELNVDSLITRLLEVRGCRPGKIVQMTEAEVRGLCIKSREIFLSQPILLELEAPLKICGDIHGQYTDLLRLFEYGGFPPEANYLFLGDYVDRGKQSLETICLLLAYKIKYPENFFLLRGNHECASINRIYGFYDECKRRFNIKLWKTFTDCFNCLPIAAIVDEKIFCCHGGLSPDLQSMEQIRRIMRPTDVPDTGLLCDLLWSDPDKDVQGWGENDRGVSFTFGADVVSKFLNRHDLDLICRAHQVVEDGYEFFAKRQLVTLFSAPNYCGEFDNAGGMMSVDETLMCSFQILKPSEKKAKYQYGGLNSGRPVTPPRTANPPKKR

Key:
Test in all cases: log2 fold change, soluble protein after heating vs DMSO (PISA); higher = thermal stabilisation; K562 cells, 10 uM, 30 min; active = over 0.2 and 3.5 SD of the protein, either way, in both replicates (recomputed)
[1] = compound: NC(=O)Nc1cc(-c2cccc(F)c2)sc1C(=O)N[C@H]1CCCNC1
Outline: (§1)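 Values are thermal stability changes relative to control samples and are taken from duplicates. They are stated as log2 fold changes. Before quantification by TMTpro 16plex LC-MS/MS with equalised channel sums, K562 cells at 2×10^6 cells/mL were treated with 10 μM compound for 30 min, heated in aliquots for 3 min across 48°C-58°C, pooled, extracted in PBS with 0.5% NP-40 at 4°C, and centrifuged at 21,000xg for 90 min to give the soluble supernatant.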

[2] = compound: NC(=O)c1cnc(N[C@@H]2CCCC[C@@H]2N)nc1Nc1cccc(-n2nccn2)c1
Outline: as §1

[3] = compound: NC1(c2ccc(-c3nc4ccn5c(=O)[nH]nc5c4cc3-c3ccccc3)cc2)CCC1
Outline: as §1

[4] = compound: NCC(=O)Nc1ccc(-n2nc(C(F)(F)F)cc2-c2ccc3c(ccc4ccccc43)c2)cc1
Outline: as §1

entinostat = compound: Nc1ccccc1NC(=O)c1ccc(CNC(=O)OCc2cccnc2)cc1 [entinostat]
Outline: as §1

vorinostat = compound: O=C(CCCCCCC(=O)Nc1ccccc1)NO [vorinostat]
Outline: as §1

citarinostat = compound: O=C(CCCCCCNC(=O)c1cnc(N(c2ccccc2)c2ccccc2Cl)nc1)NO [citarinostat]
Outline: as §1

silmitasertib = compound: O=C(O)c1ccc2c(c1)nc(Nc1cccc(Cl)c1)c1ccncc12 [silmitasertib]
Outline: as §1

[5] = compound: O=C1NC(=O)C(c2cnc3ccccn23)=C1c1cn2c3c(cc(F)cc13)CN(C(=O)N1CCCCC1)CC2
Outline: as §1

[6] = compound: c1cc(OCCN2CCCCC2)cc(-c2n[nH]c3ccc(-c4nnc[nH]4)cc23)c1
Outline: as §1

Row | Target | log2 fold change [1] | log2 fold change [2] | log2 fold change [3] | log2 fold change [4] | log2 fold change (entinostat) | log2 fold change (vorinostat) | log2 fold change (citarinostat) | log2 fold change (silmitasertib) | log2 fold change [5] | log2 fold change [6]
1 | PRRC2C isoform 7 (UniProt Q9Y520) | inactive: 0.039 | inactive: 0.028 | inactive: 0.209 | inactive: 0.071 | inactive: -0.062 | inactive: 0 | inactive: -0.057 | inactive: 0.095 | inactive: 0.119 | inactive: -0.113
2 | PREPL (UniProt Q4J6C6) | inactive: -0.047 | inactive: -0.057 | inactive: -0.093 | inactive: -0.029 | inactive: -0.04 | inactive: 0.029 | inactive: 0.014 | inactive: 0.005 | inactive: -0.103 | inactive: -0.032
3 | PRKACA (UniProt P17612) | inactive: 0.097 | inactive: 0.048 | inactive: -0.132 | inactive: -0.025 | inactive: -0.019 | inactive: 0.02 | inactive: 0.023 | inactive: -0.051 | inactive: 0.05 | inactive: -0.067
4 | PRKRA (UniProt O75569) | inactive: 0.095 | inactive: 0.053 | inactive: 0.179 | inactive: 0.102 | inactive: -0.012 | inactive: 0.019 | inactive: -0.084 | inactive: 0.139 | inactive: 0.258 | inactive: -0.225
5 | PPP4C (UniProt P60510) | inactive: -0.001 | inactive: 0.003 | inactive: 0.015 | inactive: 0.01 | inactive: -0.015 | inactive: 0.003 | inactive: 0.064 | inactive: -0.031 | inactive: -0.043 | inactive: -0.136
6 | PRPF40A (UniProt O75400) | inactive: -0.014 | inactive: -0.001 | inactive: 0 | inactive: -0.062 | inactive: 0.114 | inactive: 0.048 | inactive: 0.079 | inactive: -0.038 | inactive: 0.003 | inactive: -0.067
7 | PPP2R5A (UniProt Q15172) | inactive: 0.098 | inactive: 0.009 | active: -0.254 | inactive: -0.013 | inactive: 0.094 | inactive: 0.106 | inactive: 0.114 | inactive: -0.059 | inactive: -0.044 | inactive: -0.021
8 | PRKCSH (UniProt P14314) | inactive: 0.039 | inactive: 0.031 | inactive: -0.001 | inactive: 0.026 | inactive: -0.008 | inactive: -0.021 | inactive: 0.008 | inactive: -0.017 | inactive: -0.032 | inactive: 0.003
9 | PPP4R1 (UniProt Q8TF05) | inactive: 0.002 | inactive: -0.034 | inactive: -0.143 | inactive: -0.014 | inactive: -0.006 | inactive: 0.025 | inactive: -0.035 | inactive: 0.031 | inactive: -0.026 | inactive: 0.002
10 | PRMT5 (UniProt O14744) | inactive: -0.008 | inactive: -0.027 | inactive: -0.041 | inactive: -0.024 | inactive: 0.025 | inactive: 0.012 | inactive: 0.009 | inactive: -0.049 | inactive: -0.023 | inactive: 0.002
11 | PRPF4B (UniProt Q13523) | inactive: -0.057 | inactive: -0.075 | inactive: -0.022 | inactive: -0.065 | inactive: -0.008 | inactive: 0.025 | inactive: 0.033 | inactive: 0.01 | inactive: 0.055 | active: -0.328
12 | PPT1 (UniProt P50897) | inactive: -0.049 | inactive: -0.095 | active: -0.338 | inactive: -0.096 | inactive: -0.03 | inactive: -0.036 | inactive: 0.053 | inactive: 0.019 | inactive: -0.041 | inactive: -0.041
13 | PRMT9 (UniProt Q6P2P2) | inactive: 0.165 | inactive: 0.02 | inactive: -0.244 | inactive: -0.046 | inactive: -0.011 | inactive: -0.02 | inactive: 0.03 | inactive: 0.048 | inactive: 0.114 | inactive: 0.069
14 | PROSER2 (UniProt Q86WR7) | inactive: 0.003 | inactive: 0.048 | inactive: -0.103 | inactive: 0.108 | inactive: 0.015 | inactive: -0.082 | inactive: 0.055 | inactive: -0.008 | inactive: 0.02 | inactive: 0.044
15 | PRDX4 (UniProt Q13162) | inactive: -0.02 | inactive: -0.04 | inactive: -0.087 | inactive: -0.027 | inactive: -0.015 | inactive: 0.021 | inactive: 0.011 | inactive: 0.023 | inactive: -0.008 | inactive: -0.079
16 | PPM1F (UniProt P49593) | inactive: -0.027 | inactive: -0.038 | inactive: -0.105 | inactive: -0.085 | inactive: 0.007 | inactive: 0.002 | inactive: 0.022 | inactive: -0.028 | inactive: -0.014 | inactive: -0.008
17 | PROS1 (UniProt P07225) | inactive: -0.138 | inactive: -0.113 | inactive: 0.028 | inactive: 0.004 | inactive: -0.014 | inactive: -0.014 | inactive: -0.019 | inactive: 0.139 | inactive: -0.079 | inactive: 0.025
18 | PRMT1 (UniProt Q99873) | inactive: -0.017 | inactive: -0.042 | inactive: -0.13 | inactive: -0.035 | inactive: 0.014 | inactive: 0.012 | inactive: 0.001 | inactive: -0.008 | inactive: -0.069 | inactive: -0.064
19 | PRPF18 (UniProt Q99633) | inactive: 0 | inactive: 0.125 | inactive: -0.262 | inactive: -0.074 | inactive: 0.003 | inactive: 0.162 | inactive: -0.102 | inactive: 0.03 | inactive: -0.213 | inactive: 0.014
20 | PRPSAP2 (UniProt O60256) | inactive: -0.146 | inactive: 0.1 | inactive: 0.019 | inactive: 0.034 | inactive: -0.109 | inactive: 0.003 | inactive: -0.02 | inactive: 0.011 | inactive: -0.052 | inactive: -0.03
21 | PPP1R9B (UniProt Q96SB3) | inactive: -0.06 | inactive: -0.084 | inactive: 0.08 | inactive: -0.008 | inactive: -0.153 | inactive: 0.153 | inactive: -0.246 | inactive: 0.214 | inactive: 0.172 | inactive: -0.044
22 | PPM1G (UniProt O15355) | inactive: -0.147 | inactive: -0.086 | inactive: -0.018 | inactive: -0.181 | inactive: 0.017 | inactive: 0.079 | inactive: 0.033 | inactive: 0.031 | inactive: -0.114 | inactive: -0.102
23 | PPP1R8 (UniProt Q12972) | inactive: 0.028 | inactive: -0.022 | inactive: -0.036 | inactive: -0.035 | inactive: 0.02 | inactive: 0.03 | inactive: 0.058 | inactive: 0.002 | inactive: 0.012 | inactive: 0.014
24 | PRDX6 (UniProt P30041) | inactive: -0.037 | inactive: -0.046 | inactive: -0.048 | inactive: 0 | inactive: -0.008 | inactive: -0.049 | inactive: -0.007 | inactive: -0.057 | inactive: -0.072 | inactive: 0.007
25 | PRKRIP1 (UniProt Q9H875) | inactive: 0.102 | inactive: 0.036 | inactive: 0.087 | inactive: 0.01 | inactive: -0.009 | inactive: -0.083 | inactive: 0.001 | inactive: 0.008 | inactive: 0.124 | inactive: -0.005
26 | PPP1CB (UniProt P62140) | inactive: -0.042 | inactive: -0.016 | inactive: 0.017 | inactive: -0.061 | inactive: 0.009 | inactive: 0.077 | inactive: 0.039 | inactive: -0.026 | inactive: 0.111 | inactive: -0.081
27 | PRKCE (UniProt Q02156) | inactive: -0.068 | inactive: -0.084 | inactive: -0.177 | inactive: -0.078 | inactive: 0.01 | inactive: 0.107 | inactive: -0.019 | inactive: -0.016 | inactive: -0.018 | inactive: -0.055
28 | PRPS2 isoform 2 (UniProt P11908) | inactive: -0.009 | inactive: 0.049 | inactive: -0.034 | inactive: 0 | inactive: -0.03 | inactive: -0.026 | inactive: -0.002 | inactive: -0.022 | inactive: -0.054 | inactive: -0.017
29 | PRKCD (UniProt Q05655) | inactive: -0.086 | inactive: -0.05 | inactive: -0.081 | inactive: -0.031 | inactive: 0.024 | inactive: 0.031 | inactive: 0.006 | inactive: 0.045 | inactive: -0.06 | inactive: -0.083

Fetched one by one from the entries so far:
Row | Target | log2 fold change [1] | log2 fold change [2] | log2 fold change [3] | log2 fold change [4] | log2 fold change (entinostat) | log2 fold change (vorinostat) | log2 fold change (citarinostat) | log2 fold change (silmitasertib) | log2 fold change [5] | log2 fold change [6]
16 | PPM1F (UniProt P49593) | inactive: -0.027 | inactive: -0.038 | inactive: -0.105 | inactive: -0.085 | inactive: 0.007 | inactive: 0.002 | inactive: 0.022 | inactive: -0.028 | inactive: -0.014 | inactive: -0.008
23 | PPP1R8 (UniProt Q12972) | inactive: 0.028 | inactive: -0.022 | inactive: -0.036 | inactive: -0.035 | inactive: 0.02 | inactive: 0.03 | inactive: 0.058 | inactive: 0.002 | inactive: 0.012 | inactive: 0.014
